This test in a line: qHTS Assay for Modulators of Lamin A Splicing. The note with it: HeLa LMNA splicing GFP/RFP minigene ratio, 48 h. Put shortly:
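S3 HeLa stable clones carrying a lamin A-EGFP splicing minigene plus DsRed2 were seeded at 600 cells/well in Opti-MEM with 2% FBS, pin-dosed and incubated 48 h at 37°C. Acumen cytometry (488 nm) gave the GFP/RFP total-intensity ratio.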
(In general: In qHTS, concentration-response curves come from the screen itself.)

Where [1] appears, read: measured here: GFP splicing reporter channel.
The mark [2] stands for this setting: measured here: RFP viability control channel.

Each structure is given as a SMILES string. Some of the results follow. Further columns of the screen follow, without active or inactive calls. The list favours compounds with an active or inconclusive main result. The note in brackets gives the kind of curve behind each potency; many fits are weak.

As to `O=C(N/N=C/c1ccccn1)c1c[nH]c2ccccc12`, the AC50 (usually the concentration giving half of the maximal activity seen) was 25.1 µM [falling, single point] under setting [1] and 0.00355 µM [falling, full curve, poor fit] under setting [2].
For the compound `CCC1CN(C(=O)N2CCC(C(=O)NCc3cccc(OC)c3OC)CC2)c2cc(C)ccc2O1` (stereo unspecified), under setting [2], the AC50 was 12.6 µM [rising, single point].
In the case of `O=C(Nc1cccc(Cl)c1)Nc1cc(S(=O)(=O)N2CCOCC2)ccc1N1CCCC1`, the AC50 by setting is: under setting [1], 20 µM [rising, single point]; under setting [2], 20 µM [rising, partial curve].
For the compound `COc1ccc(C(=O)NNC(=O)CN2CCN(c3nc(-c4ccccc4)cs3)CC2)cc1`, the AC50 under setting [2] was 31.6 µM [rising, single point].
As to `CC1CCN(S(=O)(=O)c2cccc(C(=O)Nc3nccs3)c2)CC1`, the AC50 runs as follows: under setting [1], 28.2 µM [rising, single point]; under setting [2], 22.4 µM [rising, single point].
For the compound `Cc1cc(OCC(=O)Nc2ccncc2)ccc1[N+](=O)[O-]`, the AC50 under setting [2] is 35.5 µM [rising, single point].
On to `C=CCn1c(N2CCCCCC2)nc2c1c(=O)n(C)c(=O)n2C`, for which the concentration at half-maximal activity (AC50) is, setting by setting: under setting [1], 12.6 µM [rising, single point]; under setting [2], 17.8 µM [rising, single point].
Consider `Fc1ccc(Br)cc1C1C=C(c2cccnc2)Nc2ncnn21` (stereo unspecified), for which the AC50 under setting [2] is 14.1 µM [rising, partial curve].
Consider `Cc1ccccc1NC(=O)CSc1nc2ccc(NC(=O)c3cccs3)cc2s1`, for which the AC50 under setting [1] was 35.5 µM [falling, single point] and the AC50 under setting [2] is 35.5 µM [falling, single point].
On to `Oc1[nH]c2ccccc2c1N=Nc1ccccc1`, for which the AC50 by setting is: under setting [1], 3.16 µM [falling, partial curve]; under setting [2], 7.94 µM [falling, partial curve].
Take `CN1CCN(/N=C/c2ccc(N(c3ccccc3)c3ccccc3)cc2)CC1`: the AC50 reads like this: under setting [1], 35.5 µM [falling, single point]; under setting [2], 3.16 µM [falling, single point].
As for `CCOc1ccc(S(=O)(=O)Nc2cccc(-c3ccc(OCC)nn3)c2)cc1`, the AC50 is 0.00891 µM [falling, full curve] under setting [1] and 0.00631 µM [falling, full curve, poor fit] under setting [2].
For the compound `Cc1cccc(NC(=O)COC(=O)CCCC2=NS(=O)(=O)c3ccccc3N2)c1`, under setting [2], the AC50 is 0.02 µM [falling, full curve].
On to `O=C(Nc1ccc(S(=O)(=O)N2CCCCC2c2cccnc2)cc1)c1ccc(Br)cc1` (stereo unspecified), for which, under setting [1], the AC50 is 0.355 µM [falling, full curve].
For the compound `COc1ccccc1N1CCN(CC(O)COc2ccc(S(=O)(=O)N3CCOCC3)cc2)CC1` (stereo unspecified), the AC50 under setting [2] is 0.794 µM [rising, partial curve, poor fit].
Turning to `Cc1ccc(-n2cc(C(=O)Oc3cccc(C)c3)c3ccccc3c2=O)cc1`, under setting [1], the AC50 was 35.5 µM [rising, single point].
On to `Cc1c(C(=O)C(=O)NCCC2=CCCCC2)c2ccccc2n1C`, for which the AC50 by setting is: under setting [1], 28.2 µM [rising, single point]; under setting [2], 28.2 µM [rising, single point].
As to `O=C(Nc1ccc2c(c1)C(=O)NC2=O)c1ccc2ncsc2c1`, the AC50 under setting [1] was 0.0631 µM [falling, full curve, poor fit] and the AC50 under setting [2] is 35.5 µM [falling, single point].
`COC(=O)C(C(C)=O)C1c2ccccc2C=C(C)N1C(=O)OC` (stereo unspecified): the AC50 under setting [2] was 0.631 µM [falling, full curve, poor fit].
As for `CC(C)(C)OC(=O)N1CCC(c2c(C(=O)NC3CCN(Cc4ccccc4)CC3)cnn2-c2ccc(F)cc2F)CC1`, the AC50 under setting [1] is 20 µM [falling, single point] and the AC50 under setting [2] was 0.0631 µM [falling, full curve, poor fit].
With `COc1ccc(Br)cc1/C=N/NC(=O)CNC(=O)/C=C/c1ccccc1`, the AC50 under setting [2] is 5.62 µM [rising, single point].
Turning to `COc1cc(-c2nc3ccc4ccccc4c3c3c2CCC3)ccc1O`, the AC50 under setting [2] is 7.94 µM [rising, partial curve].
Still for that read-out and setting: the same measure for `Cc1ccc(NC(=O)COC(=O)C(NS(=O)(=O)c2ccc(Cl)cc2)C(C)O)cc1C` (stereo unspecified): 35.5 µM [rising, single point]; for `Cc1ccc(-c2noc(CCC(=O)N3CCCc4ccccc43)n2)cc1`: 14.1 µM [rising, single point].
As to `O=C(Nc1nc(-c2ccncc2)cs1)C1c2ccccc2Oc2ccccc21`, the AC50 is 12.6 µM [rising, partial curve] under setting [1] and 17.8 µM [rising, single point] under setting [2].
Regarding `OCCC1CN(Cc2c(O)ccc3ccccc23)CCN1CCc1ccccc1` (stereo unspecified), the AC50 under setting [1] was 15.8 µM [falling, single point].
As for `COc1ccc(Nc2nnc(-c3ccc(O)cc3)c3ccccc23)cc1`, the AC50 is, setting by setting: under setting [1], 35.5 µM [rising, partial curve, poor fit]; under setting [2], 35.5 µM [rising, partial curve, poor fit].
For the compound `O=S(=O)(Nc1nnc(-c2ccccc2)s1)c1ccc(Cl)cc1`, the AC50 was 11.2 µM [rising, partial curve] under setting [1] and 14.1 µM [rising, single point] under setting [2].
In the case of `COc1cc(/C=N/Nc2nc3ccccc3[nH]2)cc(Br)c1OCC(=O)N(C)C`, the AC50 under setting [1] was 20 µM [falling, partial curve, poor fit].
Turning to `C=CCC1(NCc2ccco2)CCN(CC)CC1`, the AC50 under setting [2] is 0.562 µM [falling, full curve, poor fit].
On to `Cc1ccc(C(C)C)c(OC(=O)/C=C/c2ccccc2)c1`, for which, under setting [2], the AC50 is 35.5 µM [rising, single point].
For `CC(=O)c1c(Nc2ccccc2)sc(C(=O)c2ccccc2)c1C`, the half-maximal activity concentration (AC50) by setting is: under setting [1], 12.6 µM [rising, single point]; under setting [2], 25.1 µM [rising, single point].
On to `COc1ccc(N=Cc2cc3c(cc2O)OC(N)=C(C#N)C3c2ccccc2)cc1` (stereo unspecified), for which the AC50 under setting [2] is 3.16 µM [falling, single point].
Turning to `NC(=O)CCCc1nc(-c2ccccc2Cl)no1`, the concentration at half-maximal activity (AC50) under setting [1] is 0.631 µM [falling, partial curve].
`O=C(Nc1ccccc1)c1cccc(C(F)(F)F)c1`: the AC50 by setting is: under setting [1], 7.08 µM [rising, partial curve, poor fit]; under setting [2], 7.08 µM [rising, full curve].
Consider `OCCC1CN(Cc2cnn(-c3ccc(F)cc3)c2)CCN1Cc1ccsc1` (stereo unspecified), for which the AC50 under setting [2] is 0.00316 µM [falling, full curve, poor fit].
In the case of `CC(O)CNC(=O)C(=O)Nc1c2c(nn1-c1ccc(Cl)cc1)CSC2` (stereo unspecified), the AC50 under setting [1] is 0.00447 µM [falling, full curve, poor fit].
Regarding `CN[C@@H]1[C@H](O[C@H]2[C@@H](O[C@@H]3[C@@H](O)[C@@H](O)[C@@H](N=C(N)N)[C@@H](O)[C@@H]3N=C(N)N)O[C@@H](C)[C@]2(O)CO)O[C@H](CO)[C@@H](O)[C@@H]1O`, the AC50 by setting is: under setting [1], 0.316 µM [falling, full curve]; under setting [2], 0.398 µM [falling, full curve].
On to `COc1cccc(Nc2ncc3nc(-c4cn(C)c5ccccc45)c(=O)n(C[C@H]4CCCO4)c3n2)c1`, for which the AC50 under setting [1] is 1.78 µM [falling, partial curve].
`S=C(Nc1ccccc1)N1CCn2c1nc1ccccc12`: the AC50 under setting [1] was 35.5 µM [rising, single point].
As to `Brc1ccc(OCc2nnnn2-c2ccccc2)cc1`, the AC50 under setting [2] was 3.55 µM [rising, single point].
As to `O=C(CN(CCO)c1ccccc1)NC12CC3CC(CC(C3)C1)C2`, the AC50 under setting [1] was 8.91 µM [rising, partial curve].
The same measure, in the same setting: the same measure for `O=C(NCCOc1ccccc1Cl)C(=O)NCCOc1ccccc1Cl`: 0.631 µM [rising, partial curve, poor fit].
As for `Cc1cc(C)n(CC(C)NCc2cn[nH]c2-c2cccc3ccccc23)n1` (stereo unspecified), the AC50 was 22.4 µM [falling, partial curve, poor fit] under setting [1] and 11.2 µM [falling, partial curve, poor fit] under setting [2].
As for `COc1ccc(SCC(=O)c2cc(C)c(OC(=S)N(C)C)c(C)c2)cc1`, the AC50 under setting [2] was 35.5 µM [rising, single point].
Regarding `Cc1ccc(C(C)C)c(OCC(=O)NCC2(N3CCOCC3)CCCCC2)c1`, the AC50 runs as follows: under setting [1], 20 µM [falling, partial curve, poor fit]; under setting [2], 14.1 µM [falling, partial curve, poor fit].
In the case of `CC1CN(C(=O)c2cccc(COc3ccc(Br)cc3)c2)CC(C)O1` (stereo unspecified), the AC50 reads like this: under setting [1], 28.2 µM [rising, partial curve]; under setting [2], 35.5 µM [rising, single point].
`CC(C)(C)n1ncc2c(=O)n(CC(=O)Nc3ccc(Cl)cc3)cnc21`: the AC50 under setting [1] was 2.82 µM [rising, single point].
Turning to `O=C(NCc1ccc2c(c1)OCO2)c1ccc(CSCc2ccccc2Cl)o1`, the AC50 under setting [2] was 10 µM [rising, partial curve, poor fit].
Consider `Cn1ccc2cc(S(=O)(=O)N3CCCC(C(=O)NCc4ccc(F)cc4)C3)ccc21` (stereo unspecified), for which the AC50 under setting [1] is 11.2 µM [falling, partial curve, poor fit] and the AC50 under setting [2] is 35.5 µM [falling, single point].
With `Fc1cccc(Cl)c1/C=N/Nc1c(Cl)cncc1Cl`, under setting [2], the AC50 is 12.6 µM [rising, single point].
Same read-out and setting: under `COc1ccccc1C(=O)NNC(=O)C(=O)NCc1ccccc1` stands 0.355 µM [falling, full curve]; under `Oc1ccc(-c2onc(C(F)(F)F)c2-c2cscn2)c(O)c1`, 11.2 µM [rising, partial curve, poor fit].
For the compound `COC(=O)c1ccc(C2C=C(c3ccc(Cl)cc3)Nc3nc4ccccc4n32)cc1` (stereo unspecified), the AC50 is 1.78 µM [rising, partial curve] under setting [1] and 6.31 µM [rising, partial curve, poor fit] under setting [2].

For the origin of these results see PubChem BioAssay AID1487 (National Center for Advancing Translational Sciences (NCATS), 2009).
